No constants are given. Whether binding was seen depends on the method and setting. Binding seen in cells or lysates may run through a third protein. Some entries that bind do so weakly or less than the wild type. Where a sequence is shown, tags or fusion partners need not be part of it.
Target: T1, GST-tagged Scd6 (S. cerevisiae) (UniProt P45978)
T1 sequence: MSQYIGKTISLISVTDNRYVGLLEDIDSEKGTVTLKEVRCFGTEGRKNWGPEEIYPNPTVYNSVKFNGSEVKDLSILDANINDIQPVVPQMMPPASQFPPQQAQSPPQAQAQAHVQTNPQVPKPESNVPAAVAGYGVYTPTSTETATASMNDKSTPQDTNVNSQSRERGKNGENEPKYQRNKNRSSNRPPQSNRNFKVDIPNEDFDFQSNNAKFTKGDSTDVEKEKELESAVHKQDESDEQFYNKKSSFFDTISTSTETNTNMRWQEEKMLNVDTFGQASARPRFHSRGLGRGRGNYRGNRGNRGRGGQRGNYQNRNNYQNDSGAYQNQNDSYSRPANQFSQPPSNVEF
Assay: pull-down; Scd6-GST captured on glutathione sepharose from yeast lysate (10 mM Tris, 150 mM NaCl, 0.5% NP40, diluted 1:1 without NP40), 4 °C for 90 min; blot with anti-GST and anti-eIF4G1; cells untreated or treated with 200 mM HU

B1: eIF4G1 (protein, UniProt P39935 1-952)
chain: MTDETAHPTQSASKQESAALKQTGDDQQESQQQRGYTNYNNGSNYTQKKPYNSNRPHQQRGGKFGPNRYNNRGNYNGGGSFRGGHMGANSSNVPWTGYYNNYPVYYQPQQMAAAGSAPANPIPVEEKSPVPTKIEITTKSGEHLDLKEQHKAKLQSQERSTVSPQPESKLKETSDSTSTSTPTPTPSTNDSKASSEENISEAEKTRRNFIEQVKLRKAALEKKRKEQLEGSSGNNNIPMKTTPENVEEKGSDKPEVTEKTKPAEEKSAEPEVKQETPAEEGEQGEKGQIKEESTPKVLTFAERLKLKKQQKEREEKTEGKENKEVPVQEETKSAIESAPVPPSEQVKEETEVAETEQSNIDESATTPAIPTKSDEAEAEVEAEAGDAGTKIGLEAEIETTTDETDDGTNTVSHILNVLKDATPIEDVFSFNYPEGIEGPDIKYKKEHVKYTYGPTFLLQFKDKLNVKADAEWVQSTASKIVIPPGMGRGNRSRDSGRFGNNSSRGHDFRNTSVRNMDDRANSRTSSKRRSKRMNDDRRSNRSYTSRRDRERGSYRNEEKREDDKPKEEVAPLVPSANRWVPKFKSKKTEKKLAPDGKTELLDKDEVERKMKSLLNKLTLEMFDAISSEILAIANISVWETNGETLKAVIEQIFLKACDEPHWSSMYAQLCGKVVKELNPDITDETNEGKTGPKLVLHYLVARCHAEFDKGWTDKLPTNEDGTPLEPEMMSEEYYAAASAKRRGLGLVRFIGFLYRLNLLTGKMMFECFRRLMKDLTDSPSEETLESVVELLNTVGEQFETDSFRTGQATLEGSQLLDSLFGILDNIIQTAKISSRIKFKLIDIKELRHDKNWNSDKKDNGPKTIQQIHEEEERQRQLKNNSRSNSRRTNNSSNRHSFRRDAPPASKDSFITTRTYSQRNSQRAPPPKEEPAAPTSTATNMFSALMGESDDEE
binding: binds
